PubChem BioAssay AID1053208, Peter MacCallum Cancer Centre, 2014
Aim: 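Find knock-downs that sensitise mouse osteosarcoma cells to doxorubicin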 (primary screen). Cell system: mouse osteosarcoma cells, early-passage culture from an engineered mouse model of fibroblastic bone tumour. Reagents: siRNA pool against mouse genes, 40 nM. Time to read-out: about 120 h (48 h before drug, then 72 h with drug). Conditions: doxorubicin 100 nM for 72 h, roughly 30-40% inhibitory dose. Read-out: 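Luminescent ATP signal taken as viability with or without 100 nM doxorubicin for 72 h; mean of two wells set against non-targeting siRNA and turned into robust z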. Scale: viability z-score with doxorubicin: higher = more viable cells under doxorubicin; viability z-score without drug: higher = more viable cells with knock-down alone. Rule for the call: 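Called active if knock-down leaves viability unchanged without drug (z within -2 to 2) but lowers it with doxorubicin (z at or under -2)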.
The whole screen tested about 17,000 reagents; shown is a part drawn at random. Of all reagents, 788 (4.7%) were called active. 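Calls rest on z-score classes alone; an extra cut-off of viability at most 70% of control was not applied to them.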 Entries without a mark were called inactive. Further read-outs or replicates are left out here.

The first 2 records as a preview:
Gene	PubChem SID	combined z-score class	viability z-score with doxorubicin	viability z-score without drug
Higd1b (HIG1 domain family, member 1B)	SID152322400	low cell count with doxorubicin only (active)	-2.36	0
Surf1 (surfeit gene 1)	SID152338512	no change with or without drug	1.91	0.34

The listing, repeating the preview:
Gene	PubChem SID	combined z-score class	viability z-score with doxorubicin	viability z-score without drug
Higd1b (HIG1 domain family, member 1B)	SID152322400	low cell count with doxorubicin only (active)	-2.36	0
Surf1 (surfeit gene 1)	SID152338512	no change with or without drug	1.91	0.34
Ubn1 (ubinuclein 1)	SID152297862	high cell count with doxorubicin only	2.02	1.52
Psma3 (proteasome subunit alpha 3)	SID152308225	low cell count with doxorubicin only (active)	-6.18	-1.35
Dnajc11 (DnaJ heat shock protein family (Hsp40) member C11)	SID152337358	no change with or without drug	-0.56	0.17
2310030G06Rik (RIKEN cDNA 2310030G06 gene)	SID152302669	no change with or without drug	-0.45	1.18
Muc6 (mucin 6, gastric)	SID152267328	no change with or without drug	-0.45	-0.67
Zkscan8 (zinc finger with KRAB and SCAN domains 8)	SID152300099	high cell count with doxorubicin only	2.25	0.84
Phxr4 (per-hexamer repeat gene 4)	SID152265836	low cell count with doxorubicin only (active)	-2.47	-1.18
Trim12a (tripartite motif-containing 12A)	SID152269665	high cell count with doxorubicin only	2.81	1.52
Vapa (vesicle-associated membrane protein, associated protein A)	SID152270383	no change with or without drug	-1.46	-1.18
Or8b56 (olfactory receptor family 8 subfamily B member 56)	SID152273529	low cell count with and without drug	-2.25	-2.02
Plekhs1 (pleckstrin homology domain containing S1)	SID152331637	low cell count with doxorubicin only (active)	-2.81	0.51
Bbc3 (BCL2 binding component 3)	SID152317750	no change with or without drug	1.12	-0.84
Eeig1 (estrogen-induced osteoclastogenesis regulator 1)	SID152309217	no change with or without drug	1.01	-0.84
Tpgs1 (tubulin polyglutamylase complex subunit 1)	SID152311038	no change with or without drug	0.22	1.52
Oas1g (2'-5' oligoadenylate synthetase 1G)	SID152283051	no change with or without drug	0.11	-0.34
Pikfyve (phosphoinositide kinase, FYVE type zinc finger containing)	SID152295465	no change with or without drug	-0.67	0.34
Wdr46 (WD repeat domain 46)	SID152267030	no change with or without drug	0	-0.84
Tead4 (TEA domain family member 4)	SID152343070	no change with or without drug	0.22	1.85
